This note sets out measurements from PubChem BioAssay AID182 (DTP/NCI, 2004).

The list does not hold the whole screen: it gathers tests that were run many times, whatever their T/C, doses with no T/C, and many T/C values between a quarter and a half above the control. Other doses and runs of a compound stand elsewhere. T/C: endpoint of the treated group in % of that of the vehicle group. Some doses have a count of surviving animals in place of a T/C: the source files T/C as zero there, which appears to mark a toxic dose or a test without result, not a measured value. Some doses without a T/C left all or most animals alive at the check, yet need not have been tolerated: the source hardly ever lists a survival T/C far under the control, and the zero likely stands for such cases as well. Survivors were counted at the toxicity check, usually on the fifth day, unless a day is given; later deaths do not show. Schedule codes are those of the source, taken here to give the interval after Q, in days (D) or hours (H), and the number of doses after X. Some entries were tested several times; the values are given in rising order. Where survival is the endpoint, this PubChem deposit counts one and a half times the control or more as active, and values a quarter to a half above the control carry no call in these data; other NCI protocols may use other cut-offs. Some T/C values are followed by the survivors on the day toxicity was checked, most often the fifth; without a count, all were alive then.

The test system of this assay is BDF1 mice, P388/ADR leukemia ip, median survival T/C. The assay can be described thus: NCI In Vivo Anticancer Drug Screen. Data for tumor model P388 Leukemia resistant to Adriamycin; NSC 123127, Developed at Scr 06 and 41 (intraperitoneal) in B6D2F1 (BDF1) mice. As to conditions: T/C endpoint: median survival time, higher T/C = longer survival. The procedure:
The antitumor activity of compounds was measured in mice bearing transplantable tumors. Survival or tumor size were measured and the results are expressed as the measurement made in the treated group (T) divided by the measurement made in the vehicle treated control group (C). The tumor model used in this assay is P388 Leukemia resistant to Adriamycin; NSC 123127, Developed at Scr 06 and 41 (intraperitoneal) in B6D2F1 (BDF1) mice

With `CCC1(O)CC2CN(CCc3c([nH]c4ccccc34)C(C(=O)OC)(c3cc4c(cc3OC)N(C)C3C(O)(C(=O)NCCSSCCNC(=O)C5(O)C(O)C6(CC)C=CCN7CCC8(c9cc(C%10(C(=O)OC)CC%11CN(CCc%12c%10[nH]c%10ccccc%12%10)CC(O)(CC)C%11)c(OC)cc9N(C)C58)C76)C(O)C5(CC)C=CCN6CCC43C65)C2)C1` (centres undefined), for the setting “dose: 1200.0 micrograms/kg/injection, schedule: Q04DX003 (ip), vehicle: saline”, the T/C was 133 % of control.
`Nc1nncs1`: the survivor count (dose: 480.0 mg/kg/injection, schedule: Q04DX003 (ip), vehicle: other) is listed as 3 of 8 and the survivor count (dose: 800.0 mg/kg/injection, schedule: Q04DX003 (ip), vehicle: other) was 0 of 8.
With `Cc1c2ccncc2c(C)c2c1[nH]c1ccccc12`, the survivor count is recorded as 8 of 8 (dose: 60.0 mg/kg/injection, schedule: Q04DX003 (ip), vehicle: water) and 8 of 8 (dose: 100.0 mg/kg/injection, schedule: Q04DX003 (ip), vehicle: water).
`S=c1nc[nH]c2nc[nH]c12`: the survivor count is listed as 8 of 8 (dose: 120.0 mg/kg/injection, schedule: Q01DX009 (ip), vehicle: alkali diluted with saline) and 6 of 8 (dose: 200.0 mg/kg/injection, schedule: Q01DX009 (ip), vehicle: alkali diluted with saline).
As for `COc1cccc2c1C(=O)c1c(O)c3c(c(O)c1C2=O)CC(O)(C(=O)CO)CC3OC1CC(N)C(O)C(C)O1` (centres undefined), the survivor count (dose: 2.88 mg/kg/injection, schedule: Q01DX004 (ip), vehicle: water) is reported as 8 of 8; the survivor count (dose: 4.8 mg/kg/injection, schedule: Q01DX004 (ip), vehicle: water) is recorded as 8 of 8; the survivor count (dose: 8.0 mg/kg/injection, schedule: Q01DX004 (ip), vehicle: water) is 8 of 8.
On to `CCCCCCCC(=O)OCC(=O)[C@]1(O)Cc2c(O)c3c(c(O)c2[C@@H](OC2CC(N)C(O)C(C)O2)C1)C(=O)c1c(OC)cccc1C3=O` (some centres undefined), for which the T/C reads like this: (dose: 4.8 mg/kg/injection, schedule: Q04DX003 (ip), vehicle: water) 127 % of control; (dose: 8.0 mg/kg/injection, schedule: Q04DX003 (ip), vehicle: water) 127 % of control. For the same compound, the survivor count (dose: 13.33 mg/kg/injection, schedule: Q04DX003 (ip), vehicle: water) was 8 of 8.
Take `CC(=O)c1cccc(NC2C(N)C(NC(=O)N(C)C)(C(C)O)C(C)(O)C2(O)COC(=O)c2c(C)cccc2O)c1` (centres undefined): the survivor count is 4 of 8 (dose: 10.8 mg/kg/injection, schedule: Q04DX003 (ip), vehicle: alkali diluted with saline); 0 of 8 (dose: 18.0 mg/kg/injection, schedule: Q04DX003 (ip), vehicle: alkali diluted with saline); 6 of 8 (dose: 24.0 mg/kg/injection, schedule: Q04DX003 (ip), vehicle: alkali diluted with saline); 0 of 8 (dose: 30.0 mg/kg/injection, schedule: Q04DX003 (ip), vehicle: alkali diluted with saline).
`COc1cc2cc3c4cc(OC)c(OC)cc4cc[n+]3c(C)c2cc1OC` (tested in a mixture with another compound): the survivor count (dose: 240.0 mg/kg/injection, schedule: Q04DX003 (ip), vehicle: other) is 3 of 8 and the survivor count (dose: 400.0 mg/kg/injection, schedule: Q04DX003 (ip), vehicle: other) was 2 of 8.
For `COc1ccc(CC2C(=O)NC(C)C(=O)N(C)C3Cc4ccc(cc4)Oc4cc(ccc4O)CC(C(=O)NC(C)C(=O)NC(C)C(=O)N2C)N(C)C3=O)cc1` (centres undefined), for the setting “dose: 20.0 mg/kg/injection, schedule: Q04DX003 (ip), vehicle: other”, the survivor count is listed as 1 of 8.
Consider `CC1CC(C)(O)CC(C(O)CC2CC(=O)NC(=O)C2)C1=O` (centres undefined), for which the survivor count (dose: 1.2 mg/kg/injection, schedule: Q04DX003 (ip), vehicle: saline) is 8 of 8; the survivor count (dose: 2.0 mg/kg/injection, schedule: Q04DX003 (ip), vehicle: saline) is given as 7 of 8; the survivor count (dose: 3.33 mg/kg/injection, schedule: Q04DX003 (ip), vehicle: saline) is 3 of 8; the survivor count (dose: 3.6 mg/kg/injection, schedule: Q04DX003 (ip), vehicle: saline) is 8 of 8; the survivor count (dose: 800.0 micrograms/kg/injection, schedule: Q01DX009 (ip), vehicle: saline) is given as 5 of 8. Further, the T/C (dose: 1.3 mg/kg/injection, schedule: Q04DX003 (ip), vehicle: saline) is 125 % of control.
With `CC(CN1CC(=O)NC(=O)C1)N1CC(=O)NC(=O)C1` (centres undefined), the T/C (dose: 240.0 mg/kg/injection, schedule: Q04DX003 (ip), vehicle: Klucel (hydroxypropylcellulose) (HPC)) is 135 % of control and the T/C (dose: 400.0 mg/kg/injection, schedule: Q04DX003 (ip), vehicle: Klucel (hydroxypropylcellulose) (HPC)) was 130 % of control [7 of 8 alive]. For the same compound, the survivor count reads like this: (dose: 360.0 mg/kg/injection, schedule: Q04DX003 (ip), vehicle: Klucel (hydroxypropylcellulose) (HPC)) 8 of 8; (dose: 500.0 mg/kg/injection, schedule: Q04DX003 (ip), vehicle: Klucel (hydroxypropylcellulose) (HPC)) 7 of 8; (dose: 600.0 mg/kg/injection, schedule: Q04DX003 (ip), vehicle: Klucel (hydroxypropylcellulose) (HPC)) 8 of 8; (dose: 1000.0 mg/kg/injection, schedule: Q04DX003 (ip), vehicle: Klucel (hydroxypropylcellulose) (HPC)) 6 of 8.
For `CC[C@H]1CN2CCc3cc(OC)c(OC)cc3[C@@H]2C[C@@H]1C[C@H]1NCCc2c1[nH]c1ccc(OC)cc21`, where the note is “dose: 50.0 mg/kg/injection, schedule: Q04DX003 (ip), vehicle: acid diluted with saline”, the survivor count was 6 of 8.
As for `COC(=O)[C@@]12OC[C@]34[C@H]([C@@H](O)[C@@H]1O)[C@@]1(C)CC(=O)C(O)=C(C)[C@@H]1C[C@H]3OC(=O)[C@H](OC(=O)/C=C(\C)C(C)C)[C@@H]24`, the survivor count is, setting by setting: (dose: 3.0 mg/kg/injection, schedule: Q04DX003 (ip), vehicle: saline + alcohol) 1 of 8 and 2 of 8; (dose: 5.0 mg/kg/injection, schedule: Q04DX003 (ip), vehicle: saline + alcohol) 0 of 8; (dose: 1080.0 micrograms/kg/injection, schedule: Q01DX004 (ip), vehicle: saline + alcohol) 0 of 8; (dose: 1800.0 micrograms/kg/injection, schedule: Q01DX004 (ip), vehicle: saline + alcohol) 1 of 8; (dose: 2000.0 micrograms/kg/injection, schedule: Q01DX009 (ip), vehicle: saline + alcohol) 4 of 8. The T/C is, setting by setting: (dose: 389.0 micrograms/kg/injection, schedule: Q01DX004 (ip), vehicle: saline + alcohol) 130 % of control; (dose: 432.0 micrograms/kg/injection, schedule: Q01DX009 (ip), vehicle: saline + alcohol) 130 % of control; (dose: 648.0 micrograms/kg/injection, schedule: Q01DX004 (ip), vehicle: saline + alcohol) 141 % of control [6 of 8 alive]; (dose: 720.0 micrograms/kg/injection, schedule: Q01DX009 (ip), vehicle: saline + alcohol) 136 % of control; (dose: 1200.0 micrograms/kg/injection, schedule: Q01DX009 (ip), vehicle: saline + alcohol) 146 % of control.
Regarding `CC[C@@]1(O)C[C@H](OC2CC(N(C)C)C(OC3CC(O)C(OC4CC(O)C(O)C(C)O4)C(C)O3)C(C)O2)c2c(cc3c(c2O)C(=O)c2c(O)ccc(O)c2C3=O)[C@H]1C(=O)OC` (some centres undefined), where the note is “dose: 5.0 mg/kg/injection, schedule: Q04DX003 (ip), vehicle: water”, the survivor count is on record as 6 of 8.
Turning to `CC(=O)[C@]1(O)Cc2c(O)c3c(c(O)c2[C@@H](OC2CC(N)C(O)C(C)O2)C1)C(=O)c1c(O)cccc1C3=O` (some centres undefined), the survivor count (dose: 0.9 mg/kg/injection, schedule: Q04DX003 (ip), vehicle: water) is 8 of 8; the survivor count (dose: 1.08 mg/kg/injection, schedule: Q04DX003 (ip), vehicle: water) was 8 of 8; the survivor count (dose: 1.5 mg/kg/injection, schedule: Q04DX003 (ip), vehicle: water) was 8 of 8; the survivor count (dose: 1.8 mg/kg/injection, schedule: Q04DX003 (ip), vehicle: water) is 8 of 8.
On to `CCN(CC)CCNc1ccc(CO)c2sc3ccccc3c(=O)c12`, for which the survivor count (dose: 80.0 mg/kg/injection, schedule: Q01DX009 (ip), vehicle: water) is listed as 8 of 8.
